Among the data in article PMC7171158 are binding values, retold here.

For test [1], the target named is λQ deletion variant lacking 36 residues at the N-terminus (λQ^Δ36) (phage λ) (UniProt P03047). As to the kind of experiment: SEC; analytical gel filtration, Superdex 75 10/300 GL; 20 mM Tris/HCl pH 7.5, 150 mM NaCl, 5% glycerol; 250 µg protein per run; standard curve; both purified.
For test [2] the target is unchanged. Description: 15N NMR relaxation (rotation correlation time); 15N R1 and R2 of 15N-λQ^Δ36 at 298 K, 700.2 MHz (16.8 T); isotropic tumbling assumed; both purified.
Test [3] has as its target T1, antiterminator protein Q from phage λ (λQ), full length (phage λ) (UniProt P03047).
T1 sequence: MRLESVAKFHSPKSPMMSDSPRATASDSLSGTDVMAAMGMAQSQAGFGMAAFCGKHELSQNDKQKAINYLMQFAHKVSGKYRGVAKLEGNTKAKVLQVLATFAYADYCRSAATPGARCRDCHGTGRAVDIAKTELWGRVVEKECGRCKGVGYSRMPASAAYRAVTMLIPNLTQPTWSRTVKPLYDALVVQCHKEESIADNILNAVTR
As to the kind of experiment: SEC; analytical gel filtration, Superdex 75 10/300 GL; 20 mM Tris/HCl pH 7.5, 150 mM NaCl, 5% glycerol; 250 µg protein per run; standard curve; both purified. (SEC sorts molecules by how far they enter the pores of the column.)

No constants are given. Whether binding was seen depends on the method and setting.

B1: λQ deletion variant lacking 36 residues at the N-terminus (λQ^Δ36) (domain or fragment, UniProt P03047 37-207)
chain: AMGMAQSQAGFGMAAFCGKHELSQNDKQKAINYLMQFAHKVSGKYRGVAKLEGNTKAKVLQVLATFAYADYCRSAATPGARCRDCHGTGRAVDIAKTELWGRVVEKECGRCKGVGYSRMPASAAYRAVTMLIPNLTQPTWSRTVKPLYDALVVQCHKEESIADNILNAVTR
Regarding B1, the binding entry in test [1] and in test [2] was “no binding” each time.

B2: antiterminator protein Q from phage λ (λQ), full length (protein, UniProt P03047 1-207)
chain: T1 sequence
For the molecule B2, in test [3], the binding entry is “no binding”.
